Test results as given in ChEMBL document CHEMBL3774321, “Systematic diversification of benzylidene heterocycles yields novel inhibitor scaffolds selective for Dyrk1A, Clk1 and CK2” (Eur J Med Chem, 2016).

Protein sequences, listed by entry. Tags and fused reporters are not part of them.
UniProt Q9Y463, whole entry: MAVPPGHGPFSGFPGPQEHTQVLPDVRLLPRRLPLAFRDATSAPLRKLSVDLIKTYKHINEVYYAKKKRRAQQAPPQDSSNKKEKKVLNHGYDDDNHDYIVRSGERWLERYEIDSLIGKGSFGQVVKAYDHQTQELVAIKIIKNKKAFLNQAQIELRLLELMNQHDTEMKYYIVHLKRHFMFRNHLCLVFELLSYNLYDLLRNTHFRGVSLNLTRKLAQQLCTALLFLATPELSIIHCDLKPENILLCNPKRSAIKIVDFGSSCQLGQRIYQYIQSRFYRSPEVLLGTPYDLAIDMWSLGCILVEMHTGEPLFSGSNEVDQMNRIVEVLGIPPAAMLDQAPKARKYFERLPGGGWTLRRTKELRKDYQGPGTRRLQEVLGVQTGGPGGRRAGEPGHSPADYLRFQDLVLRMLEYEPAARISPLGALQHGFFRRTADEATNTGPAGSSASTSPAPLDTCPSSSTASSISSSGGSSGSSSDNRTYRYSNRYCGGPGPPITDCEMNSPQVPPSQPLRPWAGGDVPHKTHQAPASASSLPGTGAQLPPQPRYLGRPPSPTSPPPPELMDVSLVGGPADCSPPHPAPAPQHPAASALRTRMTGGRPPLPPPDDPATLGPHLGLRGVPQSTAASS

Molecular target: Dual specificity tyrosine-phosphorylation-regulated kinase 1B (Homo sapiens, UniProt Q9Y463)
Assay: Inhibition of full length recombinant human GST-tagged DYRK1B expressed in insect cells using KKISGRLSPIMTEQ-NH2 as substrate incubated for 15 mins in presence of [gamma-32P]ATP
Outline: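 Purified recombinant kinase assayed with 100 μM ATP. Values averaged from at least two independent determinations.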

COc1ccc2c(c1)[nH]c1c(C)nccc12 [HARMINE] showed an IC50 of 180 nM.
